Some of the results follow. The exact form of the protein is not confirmed.
Target: T1, ETS1 (UniProt P14921)
T1 sequence: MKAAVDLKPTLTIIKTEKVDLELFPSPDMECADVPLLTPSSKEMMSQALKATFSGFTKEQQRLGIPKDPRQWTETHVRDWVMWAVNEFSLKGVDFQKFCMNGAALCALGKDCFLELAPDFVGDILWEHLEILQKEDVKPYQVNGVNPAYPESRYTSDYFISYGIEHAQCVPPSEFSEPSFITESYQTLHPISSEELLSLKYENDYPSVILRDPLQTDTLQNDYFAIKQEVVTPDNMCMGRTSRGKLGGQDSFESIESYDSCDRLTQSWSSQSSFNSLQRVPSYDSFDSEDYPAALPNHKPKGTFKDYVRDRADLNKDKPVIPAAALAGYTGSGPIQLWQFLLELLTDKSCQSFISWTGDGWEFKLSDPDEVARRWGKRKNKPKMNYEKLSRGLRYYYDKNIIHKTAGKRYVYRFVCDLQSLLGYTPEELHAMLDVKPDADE
Assay: DAPPL (digital affinity profiling via proximity ligation, sequencing)
Details: 10 mM Tris-HCl pH 7.5, 50 mM NaCl, 1 mM DTT, 4% glycerol, room temperature, 30 min; GST-TFs on glutathione beads, 16-mer random dsDNA library, 0.1% …; high values mean tight binding; double strand, one strand shown; scale: fold enrichment (6-mer frequency, TF over GST control)

| Sequence | binding signal |
| --- | --- |
| TTTACT | 1.47 |
| TCGCTT | 1.12 |
| GCTTAT | 1.28 |
| AAATCC | 1.49 |
| ATGCAT | 1.11 |
| GGCTAG | 1.16 |
| CTCCCG | 1.5 |
| ACATTG | 1.11 |
| GATTCT | 1.19 |
| CATCTT | 1.13 |
| CCCACG | 1.25 |
| ACTTTA | 1.19 |
| TCTGCA | 1.22 |
| ATACAA | 1.13 |
| AACGCT | 1.2 |
| ACTTTG | 1.29 |
| CCTGAT | 1.39 |
| TTGCAT | 1.48 |
| GCTCCT | 1.35 |
| CCGATC | 1.16 |

For reference, part of the list above.

| Sequence | binding signal |
| --- | --- |
| ATACAA | 1.13 |
| AACGCT | 1.2 |
| ACTTTG | 1.29 |

Continued:

| Sequence | binding signal |
| --- | --- |
| GGGCTA | 1.13 |
| TGTGTT | 1.05 |
| CCGGCA | 1.42 |
| CTCTTG | 1.29 |
| TTTTAC | 1.44 |
| GATTAC | 1.11 |
| CTGGTT | 1.39 |
| GACATC | 1.2 |
| AAAAGT | 1.12 |
| TGAAAC | 1.25 |
| GAAGCA | 1.26 |
| GTTGCA | 1.19 |
| CCGCGT | 1.17 |
| GCCCCT | 1.34 |
| AACAAT | 1.36 |
| GGATCC | 1.08 |
| TATTGT | 1.37 |
| AACATA | 1.29 |
| ACTCCC | 1.35 |
